According to patent US7732398B2, “Medicinal uses of mu-opioid receptor agonists” (Cornell Research Foundation, Inc., priority 2000, dated 2010):

How the values were obtained:
Male Sprague-Dawley rats = test: Rat tail-flick test, antinociceptive effects after intrathecal administration; type: in vivo; details: antinociceptive potency relative to intrathecal morphine (=1)
Experimental: Male Sprague-Dawley rats (300-350 g) were used.
Under light halothane anesthesia a needle connected to a Hamilton syringe was inserted percutaneously between spinal processes of the third and fourth lumbar vertebrae into the intrathecal space. A quick flick of the tail was observed when the tip of the needle entered the intrathecal space and was used as an indicator of successful puncture (Mestre et al., 1994). Drugs were delivered in a volume of 5 μl.
Intrathecal catheterization was performed at least two days prior to the experiment as previously described (Shimoyama et al., 1996). […]
To assess the antinociceptive effects of the opioids, the tail-flick test was used. […] The time from the onset of the heat to the withdrawal of the tail (tail-flick latency) was measured. […] Subsequent response latencies were determined at designated time points. […]
Cumulative dose-response studies were performed for each drug using the tail-flick test (Shimoyama et al., 1996), (Shimoyama et al., 1997). […] The response latency after each dosing was determined at peak analgesia, which was 15, 30 and 45 min after the administration of the MOR, DALDA and [Dmt^1]DALDA, respectively (based on preliminary studies). […] The percentage of analgesic responders in the group of rats for each cumulative dose was calculated, and a cumulative dose-response curve was constructed. […]

[1] = tested on: [^3H]NE uptake in spinal cord synaptosomes; test: Inhibition of [3H]NE uptake in spinal cord synaptosomes; type: biochemical, guinea pig; details: 95% confidence interval in brackets
Experimental: Adult female Hartley strain guinea pigs (440-550 g) were decapitated and the spinal cords taken out. A crude synaptosomal (P2) fraction was prepared as described previously (Lonart and Johnson 1995; Li 2000). Briefly, the tissue was minced and homogenized in 10 ml of ice-cold 0.32 M sucrose solution (pH7.4) with a Thomas B075 homogenizor, clearance 0.13-0.18 mm. The homogenate was centrifuged for 10 min at 1,200×g in a Megafuge centrifuge at 4° C. The resulting supernatant was then centrifuged at 20,000×g for 20 min in JA-17 rotor of a Beckman J2-21 centrifuge at 4° C. and the supernatant discarded. The pellet (P2) was gently resuspended in aerated (100% O2) ice-cold buffer containing (in mM):HEPES 20, NaCl 140, KCl 5, NaHCO3 5, MgCl2 1, Na2HPO4 1.2, CaCl2 1.2 and glucose 10, pH 7.4, and centrifuge at 3,000×g for 12 min in a Megafuge at 4° C. Pour out the supernatant. […] Protein concentration was determined by the method of Bradford (1976) at 595 nm using bovine serum albumin as a standard in a Spectra Max plus machine (Molecular Device Co. Sunnyvale, Calif.)
Add buffer 0.6 ml in tubes, synaptosome solution 0.2 ml (about 100 μg), then varying concentration of drug 0.1 ml (each concentration performed in triplicate), put in water bath for pre-incubation for 10 min at 37° C. […] Filter-bound radioactivity was counted by liquid scintillation counter (Beckman LS6001). […]

## CN1CC[C@]23c4c5ccc(O)c4O[C@H]2[C@@H](O)C=C[C@H]3[C@H]1C5 [Morphine, morphine, reference compound]
Male Sprague-Dawley rats
  Potency Ratios: 1
[1]
  IC50: 870 µM
